{"sequences": {"note": "Sequences of proteins named here, by UniProt entry; tags and fusion partners are left off. A change or cut given only in a name is not applied to a line headed by its entry.", "UniProt Q8IXJ9": "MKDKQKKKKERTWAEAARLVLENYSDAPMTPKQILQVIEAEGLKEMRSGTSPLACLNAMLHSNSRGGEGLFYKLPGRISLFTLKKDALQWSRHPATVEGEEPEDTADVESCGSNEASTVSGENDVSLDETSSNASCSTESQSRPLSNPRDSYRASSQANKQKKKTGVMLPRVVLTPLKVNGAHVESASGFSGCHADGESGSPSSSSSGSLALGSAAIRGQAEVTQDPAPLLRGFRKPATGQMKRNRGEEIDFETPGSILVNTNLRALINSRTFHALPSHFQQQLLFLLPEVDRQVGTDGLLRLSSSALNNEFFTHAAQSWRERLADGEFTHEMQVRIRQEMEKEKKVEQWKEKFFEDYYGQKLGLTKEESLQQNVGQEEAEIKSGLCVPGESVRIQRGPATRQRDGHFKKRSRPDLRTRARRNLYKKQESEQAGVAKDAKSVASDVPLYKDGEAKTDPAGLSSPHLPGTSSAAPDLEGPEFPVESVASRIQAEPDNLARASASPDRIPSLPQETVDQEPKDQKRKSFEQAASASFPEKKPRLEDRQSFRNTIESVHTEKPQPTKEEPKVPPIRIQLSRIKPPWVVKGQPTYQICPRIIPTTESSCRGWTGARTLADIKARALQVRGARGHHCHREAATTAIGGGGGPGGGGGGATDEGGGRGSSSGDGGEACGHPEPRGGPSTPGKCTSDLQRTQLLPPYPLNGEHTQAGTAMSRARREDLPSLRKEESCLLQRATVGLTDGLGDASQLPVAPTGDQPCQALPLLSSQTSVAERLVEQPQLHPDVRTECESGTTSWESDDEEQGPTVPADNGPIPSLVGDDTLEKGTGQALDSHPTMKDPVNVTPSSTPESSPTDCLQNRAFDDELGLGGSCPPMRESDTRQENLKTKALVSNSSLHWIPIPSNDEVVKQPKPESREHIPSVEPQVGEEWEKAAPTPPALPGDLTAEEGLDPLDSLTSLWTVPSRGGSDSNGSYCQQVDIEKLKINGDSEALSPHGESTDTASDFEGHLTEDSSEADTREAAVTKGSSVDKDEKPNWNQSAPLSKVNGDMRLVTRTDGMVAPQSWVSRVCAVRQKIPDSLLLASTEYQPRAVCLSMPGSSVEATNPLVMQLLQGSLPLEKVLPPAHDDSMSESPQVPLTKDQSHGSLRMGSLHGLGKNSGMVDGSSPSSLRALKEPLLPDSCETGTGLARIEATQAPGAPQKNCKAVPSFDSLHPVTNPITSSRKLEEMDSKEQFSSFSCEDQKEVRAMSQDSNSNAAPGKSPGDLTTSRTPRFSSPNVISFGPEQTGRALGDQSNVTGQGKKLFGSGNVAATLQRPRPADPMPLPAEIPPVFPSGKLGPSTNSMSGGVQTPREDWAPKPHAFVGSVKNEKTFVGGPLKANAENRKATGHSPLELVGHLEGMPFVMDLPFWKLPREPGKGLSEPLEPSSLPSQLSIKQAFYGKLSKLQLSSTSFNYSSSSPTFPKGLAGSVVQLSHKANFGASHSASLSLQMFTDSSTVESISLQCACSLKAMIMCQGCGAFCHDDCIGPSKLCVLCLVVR", "UniProt Q92560": "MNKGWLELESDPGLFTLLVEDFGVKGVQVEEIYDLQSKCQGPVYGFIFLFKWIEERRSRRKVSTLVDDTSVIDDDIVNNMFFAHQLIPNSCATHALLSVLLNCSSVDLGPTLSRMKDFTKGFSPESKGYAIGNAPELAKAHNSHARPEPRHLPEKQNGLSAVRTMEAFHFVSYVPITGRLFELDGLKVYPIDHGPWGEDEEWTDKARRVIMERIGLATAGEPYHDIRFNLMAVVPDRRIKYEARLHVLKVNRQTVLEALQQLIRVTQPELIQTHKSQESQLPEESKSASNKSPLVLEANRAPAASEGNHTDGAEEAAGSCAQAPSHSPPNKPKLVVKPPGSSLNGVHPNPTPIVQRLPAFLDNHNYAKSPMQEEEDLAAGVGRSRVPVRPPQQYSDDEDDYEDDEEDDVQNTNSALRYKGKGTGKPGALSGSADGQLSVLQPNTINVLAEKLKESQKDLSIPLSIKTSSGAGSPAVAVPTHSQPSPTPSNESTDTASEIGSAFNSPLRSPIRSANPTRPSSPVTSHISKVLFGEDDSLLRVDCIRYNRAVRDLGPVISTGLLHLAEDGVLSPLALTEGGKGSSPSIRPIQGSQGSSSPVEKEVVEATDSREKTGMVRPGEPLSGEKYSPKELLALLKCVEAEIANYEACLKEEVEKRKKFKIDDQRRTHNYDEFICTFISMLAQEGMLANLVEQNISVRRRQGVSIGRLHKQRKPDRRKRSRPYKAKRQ", "UniProt Q01167": "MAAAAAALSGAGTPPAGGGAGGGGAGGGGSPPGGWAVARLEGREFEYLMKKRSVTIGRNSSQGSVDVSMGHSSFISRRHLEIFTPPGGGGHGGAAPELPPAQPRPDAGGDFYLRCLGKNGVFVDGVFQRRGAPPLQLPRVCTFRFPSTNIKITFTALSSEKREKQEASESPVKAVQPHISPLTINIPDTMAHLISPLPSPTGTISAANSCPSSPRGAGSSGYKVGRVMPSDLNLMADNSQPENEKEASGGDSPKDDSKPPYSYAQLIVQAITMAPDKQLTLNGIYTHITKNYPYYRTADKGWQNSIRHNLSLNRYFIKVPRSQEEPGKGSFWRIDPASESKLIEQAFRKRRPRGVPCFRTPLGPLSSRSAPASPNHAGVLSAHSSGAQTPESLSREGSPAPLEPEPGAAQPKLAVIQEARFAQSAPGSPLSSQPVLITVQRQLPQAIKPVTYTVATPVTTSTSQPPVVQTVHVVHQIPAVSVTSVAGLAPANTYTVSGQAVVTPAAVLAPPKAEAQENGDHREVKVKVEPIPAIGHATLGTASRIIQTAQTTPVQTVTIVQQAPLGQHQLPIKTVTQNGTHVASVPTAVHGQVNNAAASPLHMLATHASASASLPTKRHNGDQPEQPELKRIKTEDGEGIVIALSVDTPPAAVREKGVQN", "UniProt Q13185": "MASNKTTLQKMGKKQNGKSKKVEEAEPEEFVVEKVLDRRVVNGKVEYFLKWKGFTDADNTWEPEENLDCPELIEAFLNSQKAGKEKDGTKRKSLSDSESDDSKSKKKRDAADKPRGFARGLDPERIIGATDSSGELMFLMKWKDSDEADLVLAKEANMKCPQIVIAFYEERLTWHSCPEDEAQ"}, "source": "paper doi:10.1101/2024.01.30.578015", "assay_in_all_cases": "co-IP", "key": {"[1]": {"molecular_target": "full-length ASXL1-3xFLAG (human) (UniProt Q8IXJ9)"}, "V5-tagged EHMT2 [2]": {"molecular_target": "V5-tagged EHMT2 (UniProt Q96KQ7)"}, "[3]": {"molecular_target": "mutant ASXL1Y591X-3xFLAG stably expressed in K562 cells (human) (UniProt Q8IXJ9)"}, "[4]": {"molecular_target": "EHMT2, endogenous in K562 (human (endogenous in K562)) (UniProt Q96KQ7)"}, "V5-tagged EHMT2, Q96KQ7": {"molecular_target": "T1, V5-tagged EHMT2, Q96KQ7", "T1 chain": "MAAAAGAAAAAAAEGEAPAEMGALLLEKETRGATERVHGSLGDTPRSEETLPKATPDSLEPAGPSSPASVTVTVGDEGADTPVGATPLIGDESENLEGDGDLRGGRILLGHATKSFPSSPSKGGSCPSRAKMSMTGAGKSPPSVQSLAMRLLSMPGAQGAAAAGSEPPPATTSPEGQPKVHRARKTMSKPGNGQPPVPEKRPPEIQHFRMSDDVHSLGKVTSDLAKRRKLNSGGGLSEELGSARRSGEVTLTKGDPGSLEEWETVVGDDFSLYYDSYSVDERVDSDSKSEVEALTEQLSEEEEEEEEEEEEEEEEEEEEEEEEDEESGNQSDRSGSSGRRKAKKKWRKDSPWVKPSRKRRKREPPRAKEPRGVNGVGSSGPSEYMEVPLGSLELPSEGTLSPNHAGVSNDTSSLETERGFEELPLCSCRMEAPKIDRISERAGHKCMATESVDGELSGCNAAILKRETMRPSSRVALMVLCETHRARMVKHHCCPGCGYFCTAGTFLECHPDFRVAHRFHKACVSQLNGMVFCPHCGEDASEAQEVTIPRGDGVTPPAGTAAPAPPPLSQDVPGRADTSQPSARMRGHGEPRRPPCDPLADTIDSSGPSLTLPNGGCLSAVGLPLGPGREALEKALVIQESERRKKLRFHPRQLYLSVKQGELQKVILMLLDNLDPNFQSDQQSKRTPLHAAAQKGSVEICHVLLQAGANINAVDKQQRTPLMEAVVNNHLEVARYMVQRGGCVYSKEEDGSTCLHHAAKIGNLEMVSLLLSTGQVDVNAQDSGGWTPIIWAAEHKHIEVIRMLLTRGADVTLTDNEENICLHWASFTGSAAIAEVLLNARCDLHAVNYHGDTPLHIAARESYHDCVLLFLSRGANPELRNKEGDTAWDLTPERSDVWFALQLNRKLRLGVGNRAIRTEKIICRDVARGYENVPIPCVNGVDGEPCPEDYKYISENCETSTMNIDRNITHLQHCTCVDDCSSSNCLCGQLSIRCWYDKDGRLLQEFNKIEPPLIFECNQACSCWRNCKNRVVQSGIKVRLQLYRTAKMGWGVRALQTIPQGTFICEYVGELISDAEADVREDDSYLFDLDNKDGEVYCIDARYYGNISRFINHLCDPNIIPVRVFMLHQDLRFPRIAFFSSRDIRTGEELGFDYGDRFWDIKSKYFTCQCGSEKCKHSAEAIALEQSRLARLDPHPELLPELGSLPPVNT", "settings": "remark: other sources report otherwise"}, "V5-tagged EHMT2 [5]": {"molecular_target": "V5-tagged EHMT2 (UniProt Q96KQ7)", "remark": "listed apart in the source"}}, "note": "Where two headings read alike, the source gives them in different places. These are yes or no findings as the source states them, for the method shown. In cells and extracts the contact can be indirect. Some entries that bind do so weakly or less than the wild type. For some of these results: Sequences can lack the tags named with a protein.", "data": [{"molecule": "BAP1 (co-transfected) (from UniProt Q92560 1-729) (enzyme)", "values": [{"measurement": "binding", "setting": "[1]", "result": "binds"}]}, {"molecule": "FOXK2 (from UniProt Q01167 1-660)", "values": [{"measurement": "binding", "setting": "V5-tagged EHMT2 [2]", "result": "no binding"}, {"measurement": "binding", "setting": "[1]", "result": "binds"}]}, {"molecule": "HP1γ, endogenous in K562 (from UniProt Q13185 1-183)", "values": [{"measurement": "binding", "setting": "[3]", "result": "binds"}]}, {"molecule": "endogenous BAP1 (from UniProt Q92560 1-729) (enzyme)", "values": [{"measurement": "binding", "setting": "V5-tagged EHMT2 [2]", "result": "binds"}]}, {"molecule": "full-length ASXL1-3xFLAG (from UniProt Q8IXJ9 1-1541)", "values": [{"measurement": "binding", "setting": "V5-tagged EHMT2 [2]", "result": "binds"}]}, {"molecule": "full-length ASXL1-3xFLAG stably expressed in K562 cells (from UniProt Q8IXJ9 1-1541)", "values": [{"measurement": "binding", "setting": "[4]", "result": "binds"}]}, {"molecule": "mutant ASXL1Y591X-3xFLAG stably expressed in K562 cells (from UniProt Q8IXJ9 1-590)", "values": [{"measurement": "binding", "setting": "[4]", "result": "binds"}]}, {"molecule": "EHMT1 (GLP), Q9H9B1 1-1298 (enzyme) MAAADAEAVPARGEPQQDCCVKTELLGEETPMAADEGSAEKQAGEAHMAADGETNGSCENSDASSHANAAKHTQDSARVNPQDGTNTLTRIAENGVSERDSEAAKQNHVTADDFVQTSVIGSNGYILNKPALQAQPLRTTSTLASSLPGHAAKTLPGGAGKGRTPSAFPQTPAAPPATLGEGSADTEDRKLPAPGADVKVHRARKTMPKSVVGLHAASKDPREVREARDHKEPKEEINKNISDFGRQQLLPPFPSLHQSLPQNQCYMATTKSQTACLPFVLAAAVSRKKKRRMGTYSLVPKKKTKVLKQRTVIEMFKSITHSTVGSKGEKDLGASSLHVNGESLEMDSDEDDSEELEEDDGHGAEQAAAFPTEDSRTSKESMSEADRAQKMDGESEEEQESVDTGEEEEGGDESDLSSESSIKKKFLKRKGKTDSPWIKPARKRRRRSRKKPSGALGSESYKSSAGSAEQTAPGDSTGYMEVSLDSLDLRVKGILSSQAEGLANGPDVLETDGLQEVPLCSCRMETPKSREITTLANNQCMATESVDHELGRCTNSVVKYELMRPSNKAPLLVLCEDHRGRMVKHQCCPGCGYFCTAGNFMECQPESSISHRFHKDCASRVNNASYCPHCGEESSKAKEVTIAKADTTSTVTPVPGQEKGSALEGRADTTTGSAAGPPLSEDDKLQGAASHVPEGFDPTGPAGLGRPTPGLSQGPGKETLESALIALDSEKPKKLRFHPKQLYFSARQGELQKVLLMLVDGIDPNFKMEHQNKRSPLHAAAEAGHVDICHMLVQAGANIDTCSEDQRTPLMEAAENNHLEAVKYLIKAGALVDPKDAEGSTCLHLAAKKGHYEVVQYLLSNGQMDVNCQDDGGWTPMIWATEYKHVDLVKLLLSKGSDINIRDNEENICLHWAAFSGCVDIAEILLAAKCDLHAVNIHGDSPLHIAARENRYDCVVLFLSRDSDVTLKNKEGETPLQCASLNSQVWSALQMSKALQDSAPDRPSPVERIVSRDIARGYERIPIPCVNAVDSEPCPSNYKYVSQNCVTSPMNIDRNITHLQYCVCIDDCSSSNCMCGQLSMRCWYDKDGRLLPEFNMAEPPLIFECNHACSCWRNCRNRVVQNGLRARLQLYRTRDMGWGVRSLQDIPPGTFVCEYVGELISDSEADVREEDSYLFDLDNKDGEVYCIDARFYGNVSRFINHHCEPNLVPVRVFMAHQDLRFPRIAFFSTRLIEAGEQLGFDYGERFWDIKGKLFSCRCGSPKCRHSSAALAQRQASAAQEAQEDGLPDTSSAAAADPL", "values": [{"measurement": "binding", "setting": "V5-tagged EHMT2, Q96KQ7", "result": "binds"}]}, {"molecule": "OGT (enzyme, UniProt O15294 1-1046) MASSVGNVADSTEPTKRMLSFQGLAELAHREYQAGDFEAAERHCMQLWRQEPDNTGVLLLLSSIHFQCRRLDRSAHFSTLAIKQNPLLAEAYSNLGNVYKERGQLQEAIEHYRHALRLKPDFIDGYINLAAALVAAGDMEGAVQAYVSALQYNPDLYCVRSDLGNLLKALGRLEEAKACYLKAIETQPNFAVAWSNLGCVFNAQGEIWLAIHHFEKAVTLDPNFLDAYINLGNVLKEARIFDRAVAAYLRALSLSPNHAVVHGNLACVYYEQGLIDLAIDTYRRAIELQPHFPDAYCNLANALKEKGSVAEAEDCYNTALRLCPTHADSLNNLANIKREQGNIEEAVRLYRKALEVFPEFAAAHSNLASVLQQQGKLQEALMHYKEAIRISPTFADAYSNMGNTLKEMQDVQGALQCYTRAIQINPAFADAHSNLASIHKDSGNIPEAIASYRTALKLKPDFPDAYCNLAHCLQIVCDWTDYDERMKKLVSIVADQLEKNRLPSVHPHHSMLYPLSHGFRKAIAERHGNLCLDKINVLHKPPYEHPKDLKLSDGRLRVGYVSSDFGNHPTSHLMQSIPGMHNPDKFEVFCYALSPDDGTNFRVKVMAEANHFIDLSQIPCNGKAADRIHQDGIHILVNMNGYTKGARNELFALRPAPIQAMWLGYPGTSGALFMDYIITDQETSPAEVAEQYSEKLAYMPHTFFIGDHANMFPHLKKKAVIDFKSNGHIYDNRIVLNGIDLKAFLDSLPDVKIVKMKCPDGGDNADSSNTALNMPVIPMNTIAEAVIEMINRGQIQITINGFSISNGLATTQINNKAATGEEVPRTIIVTTRSQYGLPEDAIVYCNFNQLYKIDPSTLQMWANILKRVPNSVLWLLRFPAVGEPNIQQYAQNMGLPQNRIIFSPVAPKEEHVRRGQLADVCLDTPLCNGHTTGMDVLWAGTPMVTMPGETLASRVAASQLTCLGCLELIAKNRQEYEDIAVKLGTDLEYLKKVRGKVWKQRISSPLFNTKQYTMELERLYLQMWEHYAAGNKPDHMIKPVEVTESA", "values": [{"measurement": "binding", "setting": "V5-tagged EHMT2 [5]", "result": "no binding"}]}]}
